Values joined by “and” are separate entries in the source; they are usually repeats but may differ in a detail not shown here. Identical values can stand only once. In all, about 360,000 compounds went through this assay and about 7,500 (2.1%) were called active. The inconclusive results got no clear call from the source; some entries with a clear call stand among them for comparison. The call rests on the fitted dose curve; in most records, active means well fitted inhibition curve with a large enough effect; inconclusive means small, poorly fitted or top-dose-only effect, or effect the other way; inactive means flat fitted curve, though single readings scatter. Potencies of inconclusive entries are doubtful fits and often do not repeat.
Assay: Nrf2 qHTS screen for inhibitors; further: nearly all actives have a fitted effect of over 60% in size
Details: A549 ARE-Fluc reporter, luciferase luminescence, 18-24 h; activity change, negative = inhibition: at 46 µM (top of the series)
In short: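 Nrf2 activity is the BugLite luminescence, read 15 min after reagent at room temperature, following CellTiter-Fluor cytotoxicity readout (30 min, 37C). Compound titrations were applied for 18-24 h to 5000 A549 ARE_Fluc cells/well in 5% FBS OPTI-MEM.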
On the % scale 0 is the no-effect control and ±100 the full control effect; potency means the concentration at half of the fitted maximal effect.

Compound | activity change, negative = inhibition | Potency
Cc1ccc(NC(=S)/N=C(\N)Nc2nc(C)c3cc(C)c(C)cc3n2)cc1C | inactive: -3.12% | –
O=C(O)c1cccc(-c2noc(-c3cccc(Cl)c3)n2)c1 | – | inconclusive: 2.06 µM [activator, partial curve] and inconclusive: 1.03 µM [activator, partial curve, poor fit]
O=C1[C@H]2[C@H](C=CC[C@H]2C(=O)N2CCN(c3ccccc3)CC2)CCN1Cc1ccc(Cl)c(Cl)c1 | inactive: 7.95% | –
C=CCn1c(N)cc(=O)nc1SCC(=O)Nc1ccccc1 | – | inconclusive: 23.1 µM [activator, partial curve, poor fit]
COc1ccc(C(NC(C)=O)c2cc(Cl)c3cccnc3c2O)cc1OC (stereo not drawn) | – | inconclusive: 29.1 µM [falling, single point]
CC(C)c1ccc(C(O)P(=O)(OC2CCCCC2)OC2CCCCC2)cc1 (stereo not drawn) | – | active: 16.4 µM
COc1ccc(CC(=O)Nc2nc(-c3ccc(F)c(F)c3)cs2)cc1OC | – | active: 1.84 µM
CCCSc1ncc(Cl)c(C(=O)Nc2ccc(CC)cc2)n1 | – | inconclusive: 29.1 µM [falling, single point]
CCOC(=O)N1CCC(N2CCN(c3cc(C)ccc3C)CC2)CC1 | – | inconclusive: 18.4 µM [falling, partial curve]
O=C(O)c1cc(N/N=C/c2ccc(N3CCOCC3)s2)ccc1Cl | – | inconclusive: 7.31 µM [activator, partial curve]
Cc1ccc(NC(=O)c2noc3c2CCc2ccccc2-3)cc1 | – | inconclusive: 18.4 µM [activator, partial curve]
CCN(CCCNC(=O)c1cc2cc3cc(OC)ccc3nc2s1)c1ccccc1 | – | inconclusive: 23.1 µM [falling, single point]
COc1ccc(-c2cn3c(n2)CCC3)cc1 | – | inconclusive: 2.06 µM [activator, partial curve, poor fit]
Cc1ccc(S(=O)(=O)N2CCC(C(=O)Nc3ccc(Oc4ccccc4)cc3)CC2)cc1 | – | inconclusive: 2.91 µM [falling, full curve, poor fit]
O=C1CCC(c2ccc3ccccc3c2)O1 (stereo not drawn) | – | inconclusive: 20.6 µM [activator, single point]
O=C(O)c1cc(-c2ccco2)nc2ccccc12 | inactive: 18% | –
CCOC(=O)c1c(-c2ccccc2Cl)csc1NC(=O)c1cc(S(=O)(=O)N2CCOCC2)ccc1C | inactive: -18.5% | –
O=C(NCCc1ccccc1)c1ccc2c(c1)CCN2S(=O)(=O)c1ccccc1 | – | inconclusive: 16.4 µM [falling, partial curve, poor fit]
